Assay results reported in article PMC10163288.
The other results are listed elsewhere or left out.

B1: il2ra_site1_3nfp_sap_7_mot_HHH_b1_00258_000000025_0001_42_56_H_._HHH_b1_08208_0001_0000200008_0000001_0_0001_af2pred_0001_af2pred_swapped (protein)
chain: SSSSSEIEEEVRELLEEIERLLREGDFEEARKVSEEVLKIARKGNDKEAEKLIKEAVKRNSSSSS
B2: il2ra_site1_1z92_sap_12_mot_HHH_b1_00784_af2_000000189_0001_1_17_H_._ems_4hM_4652_0001_0000400029_0000001_0_0001_af2pred_0001_af2pred (protein)
chain: SSSSDLEEIVEKIVEEIVEELGLSEELEKALRKDARAAAENGFSPEAVRKALETNAEIANSSSSS
B3: il2ra_site1_3nfp_normal_mot_0eddeacbb14b769e73e254714f31e2f9_0001_af2_000000052_0001_37_51_H_._208e20f37e868f9baeee1912733167ef_0001_af2_0001_0000200005_0000001 … (protein)
chain: DEELEEELEELIKNNDPERLLEVLKKLAEKLGNPNEAARIIWEIARELGNSDVVYEVMRLDIEEQ
B4: il2ra_site1_2b5i_sap_20_mot_896a1d39e3b28640de5b7eb5baaf079b_0001_000000273_0001_37_51_H_._HEEHE_0493_0001_0000400033_0000001_0_0001_af2pred_dldesign_0_af2pred (protein)
chain: SSSSSSSLELFRRAEELIKAGKLDEAKKLAEELLREARARGNKTAARIAEKLIEECEEAKSSSSS
B5: il2ra_site2_2erj_sap_21_mot_HHH_b2_01818_000000011_0001_42_56_H_._HHH_b1_03429_0001_0000300033_0000001_0_0001 (protein)
chain: SSSSSSDVEEQVEELLEEAKRVEDPEEAAAIVNEAAAVAVRNDNDELLEEVRKIFTELASSSSSS
B6: il2ra_site1_1z92_normal_mot_HHH_b1_05862_af2_000000270_0001_22_38_H_._HHH_b1_01857_0001_0000100001_0000001_0 (protein)
chain: SSSSTAVEWALELVRAAARLGNEEQIEFLLRDVELLLELRNDPEVEEILREIRELLEELRSSSSS
B7: il2ra_site2_2erj_sap_16_mot_HHH_b1_00682_af2_000000112_0001_43_57_H_._HHH_b2_04454_af2_0001_0001100007_0000001_0_0001_af2pred_0001_af2pred_1_swapped (protein)
chain: SSSSSSDREEAEELLEEAKQIDDEEEAEKVLRRALRLAFHAGDEELAQEIFVLISELLSSSSSSS
B8: il2ra_site2_3nfp_sap_21_mot_HHH_b2_07213_000000002_0001_43_56_H_._HHH_b1_01357_af2_0001_0000200008_0000001_0_0001 (protein)
chain: SSSSDFEEYLEAVLRLLERAVREGNEEYVERLFEMIQLAVEDNNDPEALERLEELYERFRSSSSS
B9: il2ra_site2_2erj_sap_20_mot_64bd02d26d05ce9f1a62b616cea0b888_0001_af2_000000029_0001_36_49_H_._HHH_b2_06826_0001_0000300025_0000001_0_0001 (protein)
chain: SSSSSEAYEFAAEVSIEALELFKRGDPEEARRLLEEAEEYVRELGDERAAKYLEAALRDASSSSS
B10: il2ra_site2_3nfp_sap_23_mot_HHH_b2_02831_000000278_0001_1_18_H_._HHH_b1_00356_0001_0001200154_0000001_0_0001 (protein)
chain: SSSSSDIERVVKSALRFAEQVKEEGDEEIFRSAVEWARAVAVMNGNEELEELVEEFQREYSSSSS
B11: il2ra_site1_2b5i_sap_19_mot_07104d7dbe42e49ee5b1eb09eb0325d4_0001_1_000000237_0001_1_14_H_._c2c76b0c55ab846b919312a8a0542545_0001_0001_0000200016_0000001_0_0001 … (protein)
chain: SSSSDPEDEVYDLFHEALRLRRQGKKEEAKKVLEKALALAKELGNEKTVAEIQYFLERLKSSSSS
B12: il2ra_site2_3nfp_sap_23_mot_ems_3hM_2323_000000152_0001_1_19_H_._HHH_b1_01072_0001_0000200010_0000001_1_0001 (protein)
chain: SSSSRVEEYLRAVLALLKEALEEGDEEAARRMLEAVKLAAESNNDEEIEREVEKLEEILNSSSSS
B13: il2ra_site2_3nfp_sap_18_mot_HHH_b1_00399_af2_000000233_0001_42_56_H_._bf1826a50d40eacddbdd2daba850d2f6_0001_0001_0000700029_0000001_0_0001 (protein)
chain: DEELEEEAEEVIERAKEVAKHASPHARDVLEAAIKLLEEAVRNKDEEAIRLLLEAVREAVELLES
B14: il2ra_site1_1z92_normal_mot_HHH_b1_02362_af2_000000131_0001_1_17_H_._HHH_b2_03557_0001_0000100004_0000001_0_af2pred_0001_af2pred_1 (protein)
chain: SSSSSDDREASRIVAELIRKFKLSLEQMQELLKAALEALERGLSEEEIEELLERVAEELSSSSSS
B15: il2ra_site2_2erj_normal_mot_HHH_b1_02757_000000121_0001_41_57_H_._HHH_b2_06753_0001_0000100007_0000001_0_af2pred_0001_1_af2pred_swapped (protein)
chain: SSSSSSDIEEEVKELLEEAKRISDKREALRVLQEASELASKLNDEELLELIDEVLQELSSSSSSS
B16: il2ra_site2_2erj_sap_34_mot_c2bf78bdce995293a161f7082e24b401_0001_000000177_0001_37_51_H_._HHH_b2_02272_af2_0001_0000200009_0000001_0_0001 (protein)
chain: SSSSSEELHRLYELAVRVMRLIWEGDEEEAQELLEELEELAEKAKSENVKEIIKWLKERINSSSS
B17: il2ra_site1_3nfp_normal_mot_HHH_b2_01814_000000033_0001_1_16_H_._HHH_b1_05657_0001_0000200020_0000001_0_af2pred_0001_af2pred_1 (protein)
chain: SSSSTEVNKRAQELIKRIQELLHEGNPEEAEELLEELEELARELGDEVLKLLVERLRELLSSSSS
B18: il2ra_site1_3nfp_normal_mot_HHH_b1_01335_af2_000000258_0001_39_53_H_._HHH_b2_04619_0001_0000200009_0000001_0 (protein)
chain: SSSSSEDEEEVRELLEEAERIEDVREAARVLREAYRVAAETRNLELSQLIYKVMRELAKRSSSSS

Target: il2ra, P01589
Assay: yeast display titration

Apparent Kd, inactive:
B1 no binding seen
B2 no binding seen
B3 no binding seen
B4 no binding seen
B5 no binding seen
B6 no binding seen
B7 no binding seen
B8 no binding seen
B9 no binding seen
B10 no binding seen
B11 no binding seen
B12 no binding seen
B13 no binding seen
B14 > 1.49 µM
B15 no binding seen
B16 no binding seen
B17 no binding seen
B18 no binding seen

Copied from the results shown for reference:
Apparent Kd, inactive:
B9 no binding seen
B10 no binding seen
